Source: PubChem BioAssay AID1487 (National Center for Advancing Translational Sciences (NCATS), 2009)
This is one part of the list. Shown are side measurements of this screen, not its main read-out; they come without a call. Compounds called inactive in the main read-out are mostly missing here. Potencies come from curve fits of mixed quality, noted in brackets.

Experiment: qHTS Assay for Modulators of Lamin A Splicing
Details: HeLa LMNA splicing GFP/RFP minigene ratio, 48 h
Method in brief: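 S3 HeLa stable clones carrying a lamin A-EGFP splicing minigene plus DsRed2 were seeded at 600 cells/well in Opti-MEM with 2% FBS, pin-dosed and incubated 48 h at 37°C. Acumen cytometry (488 nm) gave the GFP/RFP total-intensity ratio.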

[1] = measured here: GFP splicing reporter channel
[2] = measured here: RFP viability control channel

Row | Compound | AC50 [1] | AC50 [2]
1 | CNS(=O)(=O)c1ccc(N=Cc2c(C)[nH]n(-c3ccc(C)cc3C)c2=O)cc1 | 0.0891 µM [falling, full curve, poor fit] | 
2 | S=C(Nc1ccc(Cl)cc1Cl)NC1CCN(Cc2ccccc2)CC1 |  | 35.5 µM [rising, single point]
3 | CC(=O)Nc1ccccc1N(C)S(=O)(=O)c1ccc(C)cc1 | 35.5 µM [rising, single point] | 15.8 µM [rising, single point]
4 | Cc1cc(/C=N/NC(=O)c2cccs2)c(C)n1-c1ccccc1 |  | 7.08 µM [rising, partial curve]
5 | O=C(COc1ccccc1)Nc1cccc(-c2nc3ccccc3[nH]2)c1 |  | 11.2 µM [rising, partial curve, poor fit]
6 | COC(=O)C(C(=O)OC)[C@@H]1c2ccccc2[C@H]2C(=C[C@@H](C)[C@H]3C(=O)N(c4ccccc4)C(=O)[C@H]32)N1C(=O)OC | 0.398 µM [falling, partial curve, poor fit] | 
7 | C=CCN(CC(=O)O)S(=O)(=O)c1ccccc1C(F)(F)F | 1.58 µM [falling, partial curve, poor fit] | 
8 | CC(C)(C)NC(=S)NC(=O)C12CCC3CC(CC(C3)C1)C2 | 5.62 µM [falling, single point] | 
9 | CCOc1ccccc1C(=O)N1CCC(c2nc3ccccc3o2)CC1 | 39.8 µM [falling, partial curve, poor fit] | 0.00708 µM [falling, partial curve, poor fit]
10 | COc1cc(/C=C/C(=O)NCCn2c(C)cc3ccccc32)cc(OC)c1OC | 17.8 µM [rising, single point] | 12.6 µM [rising, partial curve, poor fit]
11 | CSc1nc(SCCO)c2sc3nc(-c4ccco4)c4c(c3c2n1)CC(C)(C)OC4 | 35.5 µM [rising, single point] | 
12 | CCOC(=O)c1c(CN2CCOCC2)n(-c2ccccc2)c2cc(Br)c(OC)cc12 | 12.6 µM [rising, single point] | 12.6 µM [rising, single point]
13 | COC(=O)c1ccc(CSc2nc3sc(C(=O)O)c(C)c3c(=O)[nH]2)cc1 | 0.0631 µM [rising, full curve, poor fit] | 
14 | COc1ccc(C)cc1N1C(=N)/C(=C2/Nc3ccccc3S2)C(c2ccccc2)C1=O (centres undefined) | 20 µM [rising, partial curve, poor fit] | 7.08 µM [rising, single point]

Shown with each value named: part of the list above
Cc1cc(/C=N/NC(=O)c2cccs2)c(C)n1-c1ccccc1
  AC50 [2]: 7.08 µM [rising, partial curve]
O=C(COc1ccccc1)Nc1cccc(-c2nc3ccccc3[nH]2)c1
  AC50 [2]: 11.2 µM [rising, partial curve, poor fit]
